Experimental data from paper PMC11246488.
Results are given in words; binding and its absence hold for the method and conditions named. Binding seen in cells or lysates may run through a third protein. Some entries that bind do so weakly or less than the wild type. Sequences can lack the tags named with a protein.

T1: Flag-KDM4A (UniProt O75164)
T1 sequence: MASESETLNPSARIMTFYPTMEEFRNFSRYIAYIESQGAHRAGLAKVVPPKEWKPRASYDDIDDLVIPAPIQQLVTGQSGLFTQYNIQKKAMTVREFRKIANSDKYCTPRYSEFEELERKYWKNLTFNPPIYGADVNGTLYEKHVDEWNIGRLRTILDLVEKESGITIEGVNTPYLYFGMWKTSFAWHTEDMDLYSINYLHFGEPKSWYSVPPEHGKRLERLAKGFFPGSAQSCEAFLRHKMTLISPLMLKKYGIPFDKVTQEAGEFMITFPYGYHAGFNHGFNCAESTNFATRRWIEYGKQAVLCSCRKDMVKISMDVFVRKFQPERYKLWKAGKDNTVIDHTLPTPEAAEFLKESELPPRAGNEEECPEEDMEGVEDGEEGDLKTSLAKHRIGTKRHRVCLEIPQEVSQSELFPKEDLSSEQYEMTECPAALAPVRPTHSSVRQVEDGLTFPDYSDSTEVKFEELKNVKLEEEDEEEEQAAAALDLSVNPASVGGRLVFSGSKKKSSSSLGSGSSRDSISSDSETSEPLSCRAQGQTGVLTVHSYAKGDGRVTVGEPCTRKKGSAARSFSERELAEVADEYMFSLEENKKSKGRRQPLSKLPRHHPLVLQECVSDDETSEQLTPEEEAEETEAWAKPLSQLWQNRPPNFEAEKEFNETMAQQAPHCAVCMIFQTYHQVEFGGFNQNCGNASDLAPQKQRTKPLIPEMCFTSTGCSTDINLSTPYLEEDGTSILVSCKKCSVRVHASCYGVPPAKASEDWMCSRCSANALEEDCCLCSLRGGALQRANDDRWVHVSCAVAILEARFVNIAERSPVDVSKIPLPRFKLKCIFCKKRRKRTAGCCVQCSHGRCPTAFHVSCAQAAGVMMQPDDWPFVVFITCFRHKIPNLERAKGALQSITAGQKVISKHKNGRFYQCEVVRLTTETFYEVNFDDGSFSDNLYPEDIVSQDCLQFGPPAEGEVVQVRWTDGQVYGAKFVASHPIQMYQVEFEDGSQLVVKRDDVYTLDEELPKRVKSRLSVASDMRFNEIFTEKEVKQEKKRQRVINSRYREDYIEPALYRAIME

T2: Nluc-Kdm4a (UniProt Q8BW72)
T2 sequence: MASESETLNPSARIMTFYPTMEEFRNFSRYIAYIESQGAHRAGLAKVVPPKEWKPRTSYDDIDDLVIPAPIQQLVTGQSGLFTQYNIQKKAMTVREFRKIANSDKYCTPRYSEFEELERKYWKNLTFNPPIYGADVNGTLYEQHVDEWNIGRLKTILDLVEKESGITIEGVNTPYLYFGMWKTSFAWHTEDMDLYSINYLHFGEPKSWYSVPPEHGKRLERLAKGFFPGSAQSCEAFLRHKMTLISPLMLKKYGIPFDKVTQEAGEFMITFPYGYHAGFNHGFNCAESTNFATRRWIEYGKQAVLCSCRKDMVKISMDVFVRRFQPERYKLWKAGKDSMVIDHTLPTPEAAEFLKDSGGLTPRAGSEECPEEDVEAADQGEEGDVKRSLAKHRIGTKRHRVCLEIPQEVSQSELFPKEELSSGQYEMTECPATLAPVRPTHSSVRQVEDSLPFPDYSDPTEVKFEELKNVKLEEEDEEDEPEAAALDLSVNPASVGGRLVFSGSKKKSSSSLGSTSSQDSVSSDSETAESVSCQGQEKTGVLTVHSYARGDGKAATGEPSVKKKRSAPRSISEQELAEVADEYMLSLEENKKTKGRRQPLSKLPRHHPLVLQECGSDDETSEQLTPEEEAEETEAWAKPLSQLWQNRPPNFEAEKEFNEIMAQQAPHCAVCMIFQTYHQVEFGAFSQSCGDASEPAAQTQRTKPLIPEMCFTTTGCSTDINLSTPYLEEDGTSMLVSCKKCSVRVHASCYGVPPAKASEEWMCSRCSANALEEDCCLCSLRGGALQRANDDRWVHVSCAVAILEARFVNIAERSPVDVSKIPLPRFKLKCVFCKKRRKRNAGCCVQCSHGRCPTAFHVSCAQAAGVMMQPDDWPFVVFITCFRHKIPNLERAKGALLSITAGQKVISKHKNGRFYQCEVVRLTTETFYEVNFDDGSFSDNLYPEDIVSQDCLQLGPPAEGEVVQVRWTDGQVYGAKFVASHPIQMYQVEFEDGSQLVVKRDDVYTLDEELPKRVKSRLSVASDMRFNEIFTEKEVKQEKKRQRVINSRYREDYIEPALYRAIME

B1: HA-YTHDC2 (protein, UniProt Q9H6S0 1-1430)
chain: MSRPSSVSPRQPAPGGGGGGGPSPCGPGGGGRAKGLKDIRIDEEVKIAVNIALERFRYGDQREMEFPSSLTSTERAFIHRLSQSLGLVSKSKGKGANRYLTVKKKDGSETAHAMMTCNLTHNTKHAVRSLIQRFPVTNKERTELLPKTERGNVFAVEAENREMSKTSGRLNNGIPQIPVKRGESEFDSFRQSLPVFEKQEEIVKIIKENKVVLIVGETGSGKTTQIPQFLLDDCFKNGIPCRIFCTQPRRLAAIAVAERVAAERRERIGQTIGYQIRLESRVSPKTLLTFCTNGVLLRTLMAGDSTLSTVTHVIVDEVHERDRFSDFLLTKLRDLLQKHPTLKLILSSAALDVNLFIRYFGSCPVIYIQGRPFEVKEMFLEDILRTTGYTNKEMLKYKKEKQQEEKQQTTLTEWYSAQENSFKPESQRQRTVLNVTDEYDLLDDGGDAVFSQLTEKDVNCLEPWLIKEMDACLSDIWLHKDIDAFAQVFHLILTENVSVDYRHSETSATALMVAAGRGFASQVEQLISMGANVHSKASNGWMALDWAKHFGQTEIVDLLESYSATLEFGNLDESSLVQTNGSDLSAEDRELLKAYHHSFDDEKVDLDLIMHLLYNICHSCDAGAVLIFLPGYDEIVGLRDRILFDDKRFADSTHRYQVFMLHSNMQTSDQKKVLKNPPAGVRKIILSTNIAETSITVNDVVFVIDSGKVKEKSFDALNFVTMLKMVWISKASAIQRKGRAGRCRPGICFRLFSRLRFQNMLEFQTPELLRMPLQELCLHTKLLAPVNCPIADFLMKAPEPPPALIVRNAVQMLKTIDAMDTWEDLTELGYHLADLPVEPHLGKMVLCAVVLKCLDPILTIACTLAYRDPFVLPTQASQKRAAMLCRKRFTAGAFSDHMALLRAFQAWQKARSDGWERAFCEKNFLSQATMEIIIGMRTQLLGQLRASGFVRARGGGDIRDVNTNSENWAVVKAALVAGMYPNLVHVDRENLVLTGPKEKKVRFHPASVLSQPQYKKIPPANGQAAAIKALPTDWLIYDEMTRAHRIANIRCCSAVTPVTILVFCGPARLASNALQEPSSFRVDGIPNDSSDSEMEDKTTANLAALKLDEWLHFTLEPEAASLLLQLRQKWHSLFLRRMRAPSKPWSQVDEATIRAIIAVLSTEEQSAGLQQPSGIGQRPRPMSSEELPLASSWRSNNSRKSSADTEFSDECTTAERVLMKSPSPALHPPQKYKDRGILHPKRGTEDRSDQSSLKSTDSSSYPSPCASPSPPSSGKGSKSPSPRPNMPVRYFIMKSSNLRNLEISQQKGIWSTTPSNERKLNRAFWESSIVYLVFSVQGSGHFQGFSRMSSEIGREKSQDWGSAGLGGVFKVEWIRKESLPFQFAHHLLNPWNDNKKVQISRDGQELEPLVGEQLLQLWERLPLGEKNTTD
B2: Ythdc2-Cluc (protein, UniProt B2RR83 1-1445)
chain: MSRPSSVSPRPPAPSGGGTGGGGGGSGGGGGGGGGGPASCGPGGGGRAKGLKDIRIDEEVKIAVNIALERFRYGDQREMEFPSSLTSTERAFIHRLSQSLGLVSKSKGKGANRYLTVKKKDGSETAHAMMTCNLTHNTKHAVRSLIQRFPVTNKERTELLPKTERGNVFAVEAENREMSKTSGRLNNGIPQVPVKRGESEFDSFRQSLPVFEKQEEIVKIIKENKVVLIVGETGSGKTTQIPQFLLDDCFKNGIPCRIFCTQPRRLAAIAVAERVAAERRERIGQTIGYQIRLESRVSPKTLLTFCTNGVLLRTLMAGDSTLSTVTHVIVDEVHERDRFSDFLLTKLRDLLQKHPTLKLILSSAALDVNLFIRYFGSCPVIYIQGRPFEVKEMFLEDILRTTGYTNKEMLKYKKEKQREEKQQTTLTEWYSAQENTFKPESQRQRAVASVSEEYDLLDDGGDAVFSQLTEKDVNCLEPWLIKEMDACLSDIWLHKDVDAFAQVFHLILTENVSVDYRHSETSATALMVAAGRGFTSQVEQLISMGANVHSKASNGWMALDWAKHFGQTEIVDLLESYSASLEFGNLDESSLVQTNGNDLSAEDRELLKAYHHSFDDEKVDLDLIMHLLYNICHSCDAGAILIFLPGYDEIVGLRDRILFDDKRFADNTHRYQVFMLHSNMQTSDQKKVLKNPPAGVRKIILSTNIAETSITVNDVVFVIDSGKVKEKSFDALNFVTMLKMVWISKASAIQRKGRAGRCRPGICFRLFSRLRFQNMLEFQTPELLRMPLQELCLHTKLLAPVNCTIADFLMKAPEPPPALIVRNAVQMLKTIDAMDAWEDLTELGYHLADLPVEPHLGKMVLCAVVLKCLDPILTIACTLAYRDPFVLPTQASQKRAAMLCRKRFTAGTFSDHMALLRAFQAWQKARSDGWERAFCEKNFLSQATMEIIIGMRTQLLGQLRASGFVRARGGGDIRDVNTNSENWAVVKAALVAGMYPNLVHVDRENVILTGPKEKKVRFHPTSVLSQPQYKKIPPANGQAAAIQALPTDWLIYDEMTRAHRIANIRCCSAVTPVTVLVFCGPARLASNALQEPSSFRADGIPNDSSDSEMEDRTTANLAALKLDEWLNFKLEPEAASLLLQLRQKWHSLFLRRMRAPSKPWSQVDEATIRAIIAVLSTEEQSAGLQQPSGIGQRPRPMSSEELPLASSWRSNNSRKSTADTEFADGSTTGERVLMKSPSPALHPPQKYKDRGILHPKRSTDDRSDQSSVKSTDSSSYPSPCASPSPPSSGKGSKSPSPRPNMPIRYFIMKSSNLRNLEISQQKGIWSTTPSNERKLNRAFWESSMVYLVFSVQGSGHFQGFSRMSSEIGREKSQDWGSAGLGGVFKVEWIRKESLPFQFAHHLLNPWNDNKKVQISRDGQELEPQVGEQLLQLWERLPLGEKTTSD

Columns and labels:
[1] = target: T1, Flag-KDM4A; test: co-IP; HEK293T cells stably co-transfected with Flag-KDM4A and HA-YTHDC2, cross-linked with 1 mM DSP in PBS for 30 min; lysis in 50 mM Tris pH 7.4, 150 mM NaCl, 1% Triton X-100, 1% sodium deoxycholate, 0.1% SDS, 5 mM EDTA; anti-Flag, anti-HA or IgG on protein G magnetic beads, overnight at 4 °C; western blot
[2] = target: T2, Nluc-Kdm4a; test: split reporter; split firefly luciferase complementation in Neuro-2a cells; plasmids co-transfected 1:1 (200 ng per well), read 36 h after transfection in imaging buffer with D-luciferin

Row | Binder | binding [1] | binding [2]
1 | B1 | binds | 
2 | B2 |  | binds
